Results as given in PubChem BioAssay AID1794845 (National Center for Advancing Translational Sciences (NCATS), 2023).
Out of some 6,900 compounds screened, fewer than 10 were called active. The call rests on the fitted dose curve; in most records, active means well fitted curve in the direction sought with a large enough effect; inconclusive means small, poorly fitted or top-dose-only effect, or another doubt; inactive means no such curve, though single readings can be large or run the other way. The list shows a part of the results.

Chains of the proteins cited; added tags and fusions are not shown. Lines headed by an entry give the natural chain unless they say otherwise; changes in a name come on top.
UniProt C7C422: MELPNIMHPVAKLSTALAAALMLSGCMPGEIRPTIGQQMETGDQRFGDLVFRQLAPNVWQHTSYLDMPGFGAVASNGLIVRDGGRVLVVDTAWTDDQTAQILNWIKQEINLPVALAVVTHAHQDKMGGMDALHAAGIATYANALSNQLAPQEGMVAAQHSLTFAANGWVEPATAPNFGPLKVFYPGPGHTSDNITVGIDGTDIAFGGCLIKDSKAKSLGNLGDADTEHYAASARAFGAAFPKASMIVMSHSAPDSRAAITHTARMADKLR

Each molecule was assayed against Metallo-beta-lactamase type 2 (Klebsiella pneumoniae) (UniProt C7C422) (assay: qHTS to identify inhibitors of the New Delhi Metallo-beta-lactamase (NDM): primary screen against the NCATS Gemini Collection). Details: NDM-1 enzyme, meropenem hydrolysis, absorbance 300 nm; at 38.4 µM (top of the series) unless noted.
Text: Assay Submitter (PI): James Inglese Ph.D., Patricia Dranchak Ph.D., Mahesh Aitha Ph.D. Assay Development and Screening Technology Laboratory (ADST) National Center for Advancing Translational Sciences (NCATS), Rockville, MD National Institute of Health (NIH), Bethesda, Maryland The metallo-beta-lactamases (MBL) are a main antibiotic resistance mechanism evolved by bacteria. There is an urgent clinical need for MBL inhibitors to mitigate this growing threat. To support a machine-based learning study, qHTS has been used to experimentally test inhibitors identified by prediction tools.
PROTOCOL TABLE (as described by Inglese et al., 2007) SEQUENCE No. (e.g., 1, 2, 3, etc.); […] (e.g., enzyme, Incubation, Reagent, etc.); VALUE; DESCRIPTION 1; NDM-1; 4 uL of 3 nM enzyme [2 nM final] in 50 mM HEPES (pH 7.0), 1 uM […], 0.01% Tween20; Use BioRaptr to dispense into Aurora black, clear bottom low base 1536-well plates 2; Compounds; 23 nL; Use Pin Tool (Wako) to transfer DMSO control and library compounds in DMSO 3; Incubate; >30 min 4; Reagent; 2 uL of 150 uM meropenem [50 uM final] 5; Incubate; 30 min. 6; Detector; Absorbance at 300 nm (bandwidth = 5 nm, 25 flashes/well) on Tecan Infinity NOTES (numbers refer to sequence above) 1; Column 1 of each plate received assay buffer without enzyme and columns 2-48 received enzyme for a final assay concentration of 2 nM. 2; Control plate contained DMSO in columns 1, 2, 3, and 4. 3; Compound interaction with enzyme. 4; Meropenem substrate was prepared in the same assay buffer as step 1 for a final assay concentration of 50 uM and added to all wells across the assay plates. 5; Substrate interaction with enzyme, plateau phase of kinetics. 6; Default reader settings were applied for absorbance read at 300 nm, bandwidth = 5 nm, 25 flashes/well. References: Inglese J, Shamu CE, Guy RK. 2007. Reporting data from high-throughput screening of small-molecule libraries. Nat Chem Biol. doi:10.1038/nchembio0807-438 Yasgar A, Shinn P, Jadhav A, Auld D, Michael S, Zheng W, Austin CP, Inglese J, Simeonov A. 2008. Compound Management for Quantitative High-Throughput Screening. J Lab Autom 13:79 - 89. doi:10.1016/j.jala.2007.12.004
Wherever Activity % (negative = inhibition) is given: % of control where 0% means no effect.

Activity % (negative = inhibition), inactive:
CC(=O)N1CCCC1c1nc(C2CN(Cc3cc(F)c(F)cc3F)C2)no1 (stereo not drawn) 4.71%
Cc1ccc(S(=O)(=O)N2CCC3(CC2)SCC(=O)N3Cc2ccco2)cc1 22.3%
COc1ccc(-c2nc(C)nc3c2CCN([S+](=O)([O-])c2cccc(OC)c2)CC3)cc1 14%
O=C(c1ccoc1)N1CC[C@@H](c2ccc3ccccc3c2)[C@H](O)C1 -5.88%
CC(=O)Oc1c(-c2ccc(NC(=O)c3ccco3)cc2)c(-c2cccc(F)c2)nn1-c1ccc(C)cc1 19.1%
Cc1cccc(OCCc2noc(C3CCN(C(=O)NC4CCCCC4)C3)n2)c1 (stereo not drawn) 12.9%
CCCS(=O)(=O)N1CCC(N2C(=O)[C@H](OCCOC)[C@@H]2c2ccncc2)CC1 -2.75%
O=C1CCC2(CCN1)CCN(S(=O)(=O)c1cccnc1)CC2 -0.426%
Cc1cc(C)cc(Nc2nc(C)cc(=O)n2CC(=O)Nc2cccc(C(F)(F)F)c2)c1 9.31%
COC(C)c1nc(C2CCOCC2)nn1Cc1ccc2c(c1)OCO2 (stereo not drawn) 1.02%
COc1ccc(-c2nc3c(c(=O)[nH]2)CCN(C(=O)c2ccccc2)C3)cc1 14%
Cc1noc(C)c1[S+](=O)([O-])N1CCn2c(nn(-c3ccc(C(F)(F)F)cc3)c2=O)C1 8.21%
Cn1nc(C(=O)N2CCC3(CC2)CC(Cc2nc(C4CC4)no2)CCO3)c2ccccc21 (stereo not drawn) 5.94%
COCC(=O)N1CCN(C(C)=O)C[C@@H]1C(=O)N[C@H](C)C(=O)OC 3.23% [at 57.5 µM]
COc1ccc(-c2ccc3ccccc3n2)c(OC)c1OC 7.47%
Cn1cncc1CN1CCC2(CCN(C3CCOCC3)CC2)C(CO)C1 (stereo not drawn) 0.85%
O=C1CCCCCN1C1CCN(Cc2ccsc2)CC1 0.058% [at 57.5 µM]
Cc1nc(C)c(C(=O)N2CCCC(c3nn(C)c(=O)n3C(C)C)C2)s1 (stereo not drawn) -0.353%
CCCS(=O)(=O)N1Cc2c(ncn2Cc2ccc(Cl)cc2)C[C@H]1C(=O)OC 11.9% [at 57.5 µM]
O=C1CC2CCN([S+](=O)([O-])c3cccs3)CC2CCN1 (stereo not drawn) 57.9%
Cc1ccc(CCC(=O)N2C[C@@H](CN3CCOCC3)[C@@H](CO)C2)cc1 16.5%
CCN1CCN(C(=O)c2ccc3nc(-c4cccc(C)n4)oc3c2)CC1 -1.78% [at 57.5 µM]
COCc1cc([C@H]2N[C@@](C)(C(=O)OC)[C@H]3C(=O)N(C)C(=O)[C@@H]23)ccc1OC 3.94%
CCn1cnnc1-c1nn(C)c2c1CN(C(=O)CCCc1nc3ccccc3s1)CC2 1.88%
COc1ccc(N2C(=O)[C@@H]3Cc4nc[nH]c4CN3C2=O)cc1 -0.871% [at 57.5 µM]
O=C(c1cc(F)ccc1F)N1CCC(Oc2cccnc2)C1 (stereo not drawn) 20.7%
CC(=O)Nc1ccc(-c2c(C(C)C)nn(-c3cccc(F)c3)c2OC(C)=O)cc1 7.68%
Cc1cccc(-c2nc3cc(C(=O)NCc4ccc(F)cc4)ccc3o2)n1 10% [at 57.5 µM]
O=C(c1ccco1)N1Cc2[nH]cnc2C[C@H]1c1nc(-c2ccncc2)no1 21.4% [at 57.5 µM]
N#Cc1ccc(CN2CCCC3(Cc4ccccc4NC3=O)C2)cc1 (stereo not drawn) -1.1%
Cc1noc2c(N3CCOCC3)cc(-c3cccnc3)nc12
O=C1NCCCCCCN(C(=O)c2ccccn2)[C@H]2CCCC[C@@H]12 7.82%
COc1cccc(COC2CN(CC(C)C)C(=O)CN(C(=O)c3csc(C(C)=O)c3)C2)c1 (stereo not drawn) 50.1%
CCCCCC(=O)N[C@H]1C[C@@H](Cc2cc(CN3CCOCC3)on2)C1(C)C -1.22% [at 57.5 µM]
c1ccc(-c2ccnc3nc(CCC4CCCC4)nn23)nc1 3.24%
CCOc1cc(=O)n2c(c1C(=O)NC1CCCC1)CCCCC2 9.27%
Cc1cc(C)n(Cc2cc(C(=O)N(C)C(C)c3ccon3)n[nH]2)n1 (stereo not drawn) -4.62%
COCCc1noc(-c2ccc(N(C)Cc3ncc(C)[nH]3)nc2)n1 1.88%
COc1ccc(NC(=O)c2ccc3c(c2)n(C)c(=O)c2ccnn23)cc1OC 4.72%
Cc1nn(-c2ccccc2)c2c1C(C)N(C1CCN([S+](=O)([O-])c3c(C)noc3C)C1)C2=O (stereo not drawn) 7.76%
COC[C@@H]1CNC[C@H]1c1ccccn1 2.02%
CC(C)(C)c1cnc([C@@H]2COCCN2C2CCCCC2)[nH]1 15% [at 77.1 µM]
O=[S+]1([O-])NC2(CCCN(Cc3c(F)cccc3Cl)C2)COc2ccccc21 (stereo not drawn) -0.277%
COc1ccc2c(c1)OCC(C(=O)NCc1noc(-c3ccco3)n1)C2 (stereo not drawn) -1.85%
COc1cccc(C(=O)NC2CCCN(c3ccc4nnc(C5CC5)n4n3)C2)c1 (stereo not drawn) 91.3%
O=C1CC2(CCN(C(=O)C3CCCN3C(=O)c3ccc(Cl)nc3)CC2)Oc2ccccc2N1 (stereo not drawn) 5.59%
Cc1ccc(-c2nc(C3CC(=O)N(c4ccc(F)c(Cl)c4)C3)no2)cc1C (stereo not drawn) -1.66%
C=CCCOC(=O)N1C[C@@H](CO)[C@@H]2Oc3ccc(Cl)cc3[C@@H]21 9.79%
CCC1(C(=O)NCCc2ccccc2)CCCCC(=O)N1 (stereo not drawn) 2.31%
O=C(C1CCCC1)N1CCC(Oc2cccnc2)C1 (stereo not drawn) 8.92%
COC(=O)[C@H](NC(=O)[C@@H]1C[C@H](NC(=O)Nc2ccc(OC)cc2)CN1C(=O)CSC)C(C)C -3.63%
COC[C@@H]1CN(Cc2cn[nH]c2-c2ccccc2)C[C@H]1c1nc(C)no1 -5.09%
CC(C)(C)c1cc(C[C@@H]2C[C@H](NS(C)(=O)=O)C2(C)C)no1 16.2% [at 57.5 µM]
COc1cccc(C(=O)N2CCCC(COc3ccccc3C(=O)N3CCOCC3)C2)c1 (stereo not drawn) 0.198%
Cc1nn(C(=O)CCC(=O)N2CCC(Cc3nncn3CC3CC3)CC2)c2ccccc12 6.68%
O=C(Nc1ccc(F)c(Cl)c1)c1cnc(-c2ccccc2)nc1-c1ccncc1 16.8%
CC1(C)C(=O)N(Cc2ccccc2F)[C@H]2CN(C3CCOCC3)C[C@H]2[S+]1(=O)[O-] 4.1% [at 57.5 µM]
CCN(CC)Cc1cnc2c(C(=O)NC3(C(N)=O)CCCC3)cnn2c1 0.0167%
COc1ccc(CN2CCC([C@@H]3CNC[C@H]3CO)CC2)c(Cl)c1OC -2.45%
FC(F)(F)c1cccc(C2=NOC3(CCN(Cc4ccccc4)CC3)C2)c1 1.91%
CCc1noc([C@@H]2CC(F)(F)CN2C(=O)CCn2cc(C)cn2)n1 2.72%
COC1CN(c2cccc(F)c2)C12CCN(C(=O)CC1CCCCC1)CC2 (stereo not drawn) 16.3%
COc1cc(C(=O)N[C@@H]2[C@@H](c3ccccc3)[C@@H](CO)N3CCCC[C@H]23)cc(OC)c1OC 15.3%
O=S(=O)(Cc1noc([C@@H]2C[C@@H](O)CN2CC2CC2)n1)c1ccc(F)cc1 -0.858% [at 57.5 µM]
COCC(=O)NC[C@H]1CCN(Cc2ccc(Br)o2)C[C@H]1N(C)C 6.59%
NCc1cccc(-c2cncnc2)c1 3.11% [at 57.5 µM]
Cc1ccc(C#N)c(-c2cc(NCc3cccnc3)nc3[nH]ccc23)n1 0.724%
O=C1CO[C@H]2CCN(Cc3ccc4c(c3)CCO4)CC[C@@H]2N1Cc1ccccc1 -3.43% [at 57.5 µM]
COc1ccccc1-c1[nH]nc2ncc(C(=O)N3C[C@@H](C)O[C@@H](C)C3)nc12 5.6% [at 57.5 µM]
O=C(C1CC2(CCNCC2)CN1)N1CCC(c2nc3ccccc3[nH]2)CC1 (stereo not drawn) -3.12%
O=C1CCN(S(=O)(=O)c2ccccc2)CCCN(C(=O)c2c[nH]c3ccccc23)CCN1 29.4%
CC1=C[C@@H](CNS(=O)(=O)c2cccc(C#N)c2)[C@H](C(C)C)C[C@H]1CC(=O)N(C)Cc1cccnc1 -3.82%
COc1ccccc1-c1ccc(C(=O)N2CCC(NC(=O)Cc3ccc(F)cc3)CC2)cc1 0.473%
COc1ccc(CC2CN(Cc3cccc(-n4cccn4)c3)CCO2)cc1 (stereo not drawn) -0.751%
COCCn1c(=O)c(C(=O)N2CCN(C(C)=O)CC2)nc2cccnc21 4.52%
O=C(NCC1CN(Cc2cccc(O)c2)CC12CN(c1ccccc1)C2)c1ccccc1 (stereo not drawn) -0.104% [at 57.5 µM]
COc1ccccc1CCC(=O)N1c2ccccc2CC1c1nc(C2CC2)no1 (stereo not drawn) -1.88%
O=C(O)Cc1cccn1-c1ccc(Cl)cc1 -8.23%
Cn1cc(CN2C[C@H](C(=O)Nc3ccn(C)n3)C[C@@H]2c2cccc(C(F)(F)F)c2)cn1 -1.49% [at 57.5 µM]
CC1CCCN(C(=O)c2coc(COc3cccc(F)c3F)n2)C1 (stereo not drawn) -4.78%
CC(C)CCN1C(=O)CC[C@H]2CN(C(=O)Cn3ccc(=O)[nH]c3=O)CC[C@H]21 -1.24%
CCOCCOC1CCN(C(=O)c2nn(C)c3ccccc23)CC1 12%
CC(C)c1nc(-c2ccc(OC3CCN(C(=O)c4n[nH]c5ccccc45)C3)cc2)no1 (stereo not drawn) 8.75%
